Measured values: US8552007B2, “Mesoionic pesticides” (E.I. du Pont de Nemours and Company, priority 2008, dated 2013)
Where a name gives a salt, the structure may show the parent alone. Read-outs that look alike come from different tables or passages of the source. Some of these results come from one statement about several compounds together. For some assays here: At least one structure is not confirmed: it was looked up by name or label, or the drawing left a doubt.

Experiments:
Type in all cases: in vivo
[1] = tested on: diamondback moth (Plutella xylostella); assay: Test A: control of diamondback moth, foliar spray on pre-infested radish plant; settings: sprayed at 250 ppm, 6 days at 25° C., very good to excellent control
[2] = tested on: fall armyworm (Spodoptera frugiperda); assay: Test B: control of fall armyworm, foliar spray on pre-infested maize plant; settings: sprayed at 250 ppm, very good to excellent control
[3] = tested on: green peach aphid (Myzus persicae); settings: sprayed at 250 ppm; radish plant; 6 days
Description: For evaluating control of green peach aphid (Myzus persicae) through contact and/or systemic means, the test unit consisted of a small open container with a 12-15-day-old radish plant inside. This was pre-infested by placing on a leaf of the test plant 30-40 aphids on a piece of leaf excised from a culture plant (cut-leaf method). The aphids moved onto the test plant as the leaf piece desiccated. After pre-infestation, the soil of the test unit was covered with a layer of sand.
Test compounds were formulated and sprayed at 250 ppm as described for Test A. The applications were replicated three times. After spraying of the formulated test compound, each test unit was allowed to dry for 1 h and then a black, screened cap was placed on top. The test units were held for 6 days in a growth chamber at 19-21° C. and 50-70% relative humidity. Each test unit was then visually assessed for insect mortality.

[4] = tested on: cotton melon aphid (Aphis gossypii); settings: sprayed at 250 ppm; cotton plant
[5] = tested on: corn planthopper (Peregrinus maidis); settings: maize plant, 6 days
[6] = tested on: potato leafhopper (Empoasca fabae); settings: Soleil bean plant, 6 days
[7] = tested on: Western Flower Thrip (Frankliniellla occidentalis); assay: Test G: control of Western Flower Thrip through contact and/or systemic means, Soleil bean plant; settings: sprayed at 250 ppm, 7 days
[8] = tested on: cat flea (Ctenocephalides felis); settings: 20 μL of 500 ppm solution on filter paper; adult fleas; 48 hours
Method: For evaluating control of the cat flea (Ctenocephalides felis), a test compound was solubilized in acetone:water (75:25) to a final test rate of 500 ppm. Then 20 μL of the 500 ppm solution was applied to filter paper in the bottom of a tube. The tube was allowed to dry for 3 hours. Then approximately 10 adult fleas were added to the tube and the tube was capped. The fleas were evaluated for mortality 48 hours later.

[9] = tested on: cat flea (Ctenocephalides felis); settings: 30 ppm in bovine blood; adult fleas; 72 h
Method: For evaluating control of the cat flea (Ctenocephalides felis), a test compound was solubilized in propylene glycol/glycerol formal (60:40) and then diluted in bovine blood to a final test rate of 30 ppm. The treated blood was placed in a tube with the bottom of the tube covered with a membrane. Approximately 10 adult cat fleas were allowed to feed through the membrane on the treated blood. The adult fleas were evaluated for mortality 72 h later.

[10] = tested on: cat flea (Ctenocephalides felis); assay: Test J: control of cat flea following oral administration of test compound to a mouse; settings: CD-1 mouse orally dosed 10 mg/kg; fleas applied 2 h after dosing; 48 hours after flea application

SMILES | control efficacy: feeding damage (40% or less feeding damage and/or 100% mortality) [1] | control efficacy: feeding damage (40% or less feeding damage and/or 100% mortality) [2] | mortality [3] | mortality ([5]; sprayed at 50 ppm) | mortality ([6]; sprayed at 50 ppm) | control efficacy: plant damage (30% or less plant damage and/or 100% mortality) [7] | mortality [8] | also measured
N#Cc1cc(-c2c([O-])[n+](Cc3cnc(Cl)s3)c3ccccn3c2=O)ccn1 [Compound 550] | ≤ 40% | ≤ 40% | at least 80% | – | – | – | – | mortality [4]: at least 80%
O=c1c(I)c([O-])[n+](Cc2cnc(Cl)s2)c2ccccn12 [Compound 608, 1-[(2-chloro-5-thiazolyl)methyl]-2-hydroxy-3-iodo-4-oxo-4H-pyrido[1,2-a]-pyrimidinium inner salt] | ≤ 40% | – | at least 80% | ≥ 80% | ≥ 80% | ≤ 30% | – | mortality ([5]; sprayed at 250 ppm): at least 80%; mortality ([6]; sprayed at 250 ppm): ≥ 80%
O=c1c(-c2cccnc2F)c([O-])[n+](Cc2ccc(Cl)nc2)c2ccccn12 [Compound 579] | – | – | – | ≥ 80% | – | ≤ 30% | – | mortality ([5]; sprayed at 250 ppm): at least 80%
O=c1c(-c2ccc(F)cn2)c([O-])[n+](Cc2ccc(Cl)nc2)c2ccccn12 [Compound 576] | – | – | – | ≥ 80% | – | – | ≥ 50% | mortality ([5]; sprayed at 250 ppm): at least 80%
O=c1c(-c2cccc(-c3ccc(C(F)(F)F)nc3)c2)c([O-])[n+](Cc2cnc(Cl)s2)c2ccccn12 [Compound 617] | ≤ 40% | ≤ 40% | – | – | – | ≤ 30% | – | –
O=c1c(-c2cccc(OC(F)(F)F)c2)c([O-])[n+](Cc2ccc(Cl)nc2)c2sccn12 [Compound 138, 8-[(6-chloro-3-pyridinyl)methyl]-7-hydroxy-5-oxo-6-[3-(trifluoromethoxy)phenyl]-5H-thiazolo[3,2-a]pyrimidinium inner salt] | ≤ 40% | – | – | ≥ 80% | ≥ 80% | – | ≥ 50% | mortality [9]: ≥ 50%
CC(c1ccc(Cl)nc1)[n+]1c([O-])c(-c2ccc(F)cc2F)c(=O)n2ccccc21 (centres unmarked) [Compound 497] | – | – | – | – | ≥ 80% | ≤ 30% | – | mortality [10]: ≥ 20%
O=c1c(-c2ccnc(Br)c2)c([O-])[n+](Cc2cnc(Cl)s2)c2ccccn12 [Compound 540] | ≤ 40% | ≤ 40% | at least 80% | ≥ 80% | ≥ 80% | – | – | mortality [4]: at least 80%
O=c1c(I)c([O-])[n+](CC(F)(F)C(F)(F)F)c2ccccn12 [Compound 114] | – | – | – | – | – | – | ≥ 50% | mortality ([5]; sprayed at 250 ppm): at least 80%; mortality [9]: ≥ 50%
O=c1c(-c2ccnc(C(F)(F)F)c2)c([O-])[n+](Cc2cnc(Cl)s2)c2ccccn12 [Compound 653] | ≤ 40% | ≤ 40% | at least 80% | – | ≥ 80% | – | – | mortality [4]: at least 80%
O=c1c(-c2ccc(-c3ccc(Cl)nc3)cc2)c([O-])[n+](Cc2ccc(Cl)nc2)c2ccccn12 [Compound 528] | ≤ 40% | – | – | – | – | ≤ 30% | – | mortality [9]: ≥ 50%
O=c1c(-c2cc(C(F)(F)F)ccn2)c([O-])[n+](Cc2cnc(Cl)s2)c2ccccn12 [Compound 597] | ≤ 40% | – | at least 80% | ≥ 80% | ≥ 80% | – | ≥ 50% | mortality [9]: ≥ 50%
O=c1c(-c2cc(-c3ccc(F)nc3)cc(C(F)(F)F)c2)c([O-])[n+](Cc2ccc(Cl)nc2)c2ccccn12 [Compound 531] | ≤ 40% | ≤ 40% | – | – | – | ≤ 30% | – | –
O=c1c(-c2cc(C(F)(F)F)ccn2)c([O-])[n+](CC(F)(F)F)c2ccccn12 [Compound 521] | – | – | – | – | – | – | ≥ 50% | mortality [9]: ≥ 50%
O=c1c(-c2cc(OC(F)(F)F)cc(-c3ccc(Cl)nc3)c2)c([O-])[n+](Cc2cnc(Cl)s2)c2ccccn12 [Compound 635] | ≤ 40% | ≤ 40% | – | – | – | ≤ 30% | – | –
Cn1c(-c2ccccc2)[n+](CC(F)(F)F)c([O-])c(-c2ccccc2)c1=O [Compound 507] | – | – | – | – | – | – | ≥ 50% | –
O=c1c(-c2cc(-c3ccc(F)nc3)cc(C(F)(F)F)c2)c([O-])[n+](Cc2cnc(Cl)s2)c2ccccn12 [Compound 544] | ≤ 40% | ≤ 40% | – | – | – | ≤ 30% | – | –
O=c1c(-c2cc(OC(F)(F)F)cc(-c3ccc(C(F)(F)F)nc3)c2)c([O-])[n+](Cc2cnc(Cl)s2)c2ccccn12 [Compound 682] | ≤ 40% | ≤ 40% | – | – | – | ≤ 30% | – | –
COc1cc(-c2c([O-])[n+](Cc3cnc(Cl)s3)c3ccccn3c2=O)ccn1 [Compound 636] | ≤ 40% | ≤ 40% | at least 80% | ≥ 80% | – | – | – | mortality [4]: at least 80%
